{"sequences": {"note": "By UniProt entry, the sequences of proteins in these tests, tags left out. Where a name states a change or a piece, a line headed by the entry shows the natural chain unless it says otherwise.", "UniProt O96008": "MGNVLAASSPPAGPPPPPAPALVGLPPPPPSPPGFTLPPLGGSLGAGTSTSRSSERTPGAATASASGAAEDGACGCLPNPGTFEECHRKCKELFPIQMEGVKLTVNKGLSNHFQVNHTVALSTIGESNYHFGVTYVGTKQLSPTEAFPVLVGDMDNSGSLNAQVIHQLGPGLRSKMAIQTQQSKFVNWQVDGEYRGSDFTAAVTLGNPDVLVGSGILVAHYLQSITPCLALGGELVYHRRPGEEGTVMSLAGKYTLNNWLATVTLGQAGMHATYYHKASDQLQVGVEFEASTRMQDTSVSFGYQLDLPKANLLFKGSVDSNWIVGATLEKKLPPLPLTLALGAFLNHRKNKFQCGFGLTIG", "UniProt Q9BXM7": "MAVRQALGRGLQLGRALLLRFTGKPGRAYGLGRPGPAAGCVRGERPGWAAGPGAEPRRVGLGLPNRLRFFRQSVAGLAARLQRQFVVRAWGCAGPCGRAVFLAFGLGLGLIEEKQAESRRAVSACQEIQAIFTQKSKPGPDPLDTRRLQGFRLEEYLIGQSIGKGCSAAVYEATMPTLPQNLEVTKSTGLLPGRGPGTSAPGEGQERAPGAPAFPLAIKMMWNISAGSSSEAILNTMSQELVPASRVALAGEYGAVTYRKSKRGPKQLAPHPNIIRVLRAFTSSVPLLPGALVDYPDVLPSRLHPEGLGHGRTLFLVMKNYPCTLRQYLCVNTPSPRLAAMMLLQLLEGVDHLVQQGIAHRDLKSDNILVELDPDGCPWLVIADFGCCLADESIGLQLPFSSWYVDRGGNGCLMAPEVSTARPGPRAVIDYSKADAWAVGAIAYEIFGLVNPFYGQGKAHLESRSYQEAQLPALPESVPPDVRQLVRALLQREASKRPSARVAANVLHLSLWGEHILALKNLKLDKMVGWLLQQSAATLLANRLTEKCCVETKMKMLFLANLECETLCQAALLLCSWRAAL"}, "source": "paper doi:10.1101/2021.08.05.455304", "target": "Translocase of the Outer Mitochondrial Membrane (TOM) complex (human (endogenous in U2OS)) (UniProt O96008)", "experiment": "native gel or EMSA", "note": "No constants are given. Whether binding was seen depends on the method and setting. Some binding calls cover weakened binding; strength is not graded here.", "data": [{"substance": "human PINK1(WT)-3HA (from UniProt Q9BXM7 1-581) (enzyme)", "values": [{"measurement": "binding", "value": "binds"}]}]}
